Reference: article PMC3738497
These are yes or no findings as the source states them, for the method shown. Binding seen in cells or lysates may run through a third protein. A result given as binding can be weak or reduced; the word gives no strength. Where a sequence is shown, tags or fusion partners need not be part of it.

Target: T1, IRE1-3xmyc (murine IRE1α with a 3xmyc tag) (murine) (UniProt Q9Z2E3)
T1 sequence: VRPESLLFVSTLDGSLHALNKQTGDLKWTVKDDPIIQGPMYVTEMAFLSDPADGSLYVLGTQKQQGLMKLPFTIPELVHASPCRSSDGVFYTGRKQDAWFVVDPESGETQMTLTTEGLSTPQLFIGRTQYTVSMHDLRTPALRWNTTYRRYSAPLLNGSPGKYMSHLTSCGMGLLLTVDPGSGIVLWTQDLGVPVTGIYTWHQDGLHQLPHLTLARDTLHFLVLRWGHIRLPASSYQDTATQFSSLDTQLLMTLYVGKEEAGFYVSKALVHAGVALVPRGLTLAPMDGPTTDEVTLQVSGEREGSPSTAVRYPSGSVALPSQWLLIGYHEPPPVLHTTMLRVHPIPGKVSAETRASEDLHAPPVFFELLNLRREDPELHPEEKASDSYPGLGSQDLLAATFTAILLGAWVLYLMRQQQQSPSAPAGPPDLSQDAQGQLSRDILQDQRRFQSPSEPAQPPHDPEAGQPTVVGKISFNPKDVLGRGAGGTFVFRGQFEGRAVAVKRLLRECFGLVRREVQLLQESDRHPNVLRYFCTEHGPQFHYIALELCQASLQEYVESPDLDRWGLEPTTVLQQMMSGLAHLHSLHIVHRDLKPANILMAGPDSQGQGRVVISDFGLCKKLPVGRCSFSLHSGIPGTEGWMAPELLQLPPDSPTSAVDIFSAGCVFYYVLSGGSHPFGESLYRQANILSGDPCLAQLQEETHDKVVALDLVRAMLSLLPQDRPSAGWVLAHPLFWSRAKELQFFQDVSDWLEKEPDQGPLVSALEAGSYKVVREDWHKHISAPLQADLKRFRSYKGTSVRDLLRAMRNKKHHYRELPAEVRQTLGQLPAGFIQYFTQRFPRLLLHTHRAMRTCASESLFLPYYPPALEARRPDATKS
Test: co-IP; 10.1 fibroblasts stably expressing myc-tagged IRE1 infected with MCMV-M50HA or MCMV-HAm41 at an MOI of 4; lysates 17 and 31 hpi; IRE1 precipitated with an anti-myc antibody; HA-tagged proteins detected by immunoblot

| Substance | binding |
| --- | --- |
| HA-tagged M50 expressed from MCMV-M50HA (murine cytomegalovirus (MCMV)) | binds |
| HA-tagged m41 expressed from MCMV-HAm41 (murine cytomegalovirus (MCMV)) | no binding |
